Test system: Toledo cells
Experiment: Fluorescent detection of metabolically active cells under hypoxic environment
Assay type: cell-based, human
Details: hypoxic conditions, 2, 12 and 24 hours

7-benzyl-3-nitrobenzimidazolo[3,2-a]quinolinium chloride [NBQ-48]
transformation into fluorescent metabolite: transform the NBQ48 into a florescent metabolite

From US11311531B2, “Method for producing benzazoloquinolium (BQs) salts and using the biological activity of the composition” (Sistema Universitario Ana G. Mendez, Inc., priority 2014, dated 2022)
